In publication PMC7294942:
These are yes or no findings as the source states them, for the method shown. Binding seen in cells or lysates may run through a third protein. A yes stands for co-enrichment or nearness to the bait. Other partners may have been found.

Sequences of proteins named here, by UniProt entry; tags and fusion partners are left off.
UniProt P01106: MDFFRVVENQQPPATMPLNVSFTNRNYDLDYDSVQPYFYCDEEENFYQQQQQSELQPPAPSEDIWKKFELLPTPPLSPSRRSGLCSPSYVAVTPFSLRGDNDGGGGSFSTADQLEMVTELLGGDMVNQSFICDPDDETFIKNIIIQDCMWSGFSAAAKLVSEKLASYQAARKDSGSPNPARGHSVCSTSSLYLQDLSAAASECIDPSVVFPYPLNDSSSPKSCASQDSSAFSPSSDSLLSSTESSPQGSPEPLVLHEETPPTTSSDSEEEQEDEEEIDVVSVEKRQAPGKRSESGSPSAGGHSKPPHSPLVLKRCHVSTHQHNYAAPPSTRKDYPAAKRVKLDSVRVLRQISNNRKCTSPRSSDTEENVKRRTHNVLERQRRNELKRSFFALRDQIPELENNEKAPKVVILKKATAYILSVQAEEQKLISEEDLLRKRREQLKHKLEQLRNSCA
UniProt Q92831: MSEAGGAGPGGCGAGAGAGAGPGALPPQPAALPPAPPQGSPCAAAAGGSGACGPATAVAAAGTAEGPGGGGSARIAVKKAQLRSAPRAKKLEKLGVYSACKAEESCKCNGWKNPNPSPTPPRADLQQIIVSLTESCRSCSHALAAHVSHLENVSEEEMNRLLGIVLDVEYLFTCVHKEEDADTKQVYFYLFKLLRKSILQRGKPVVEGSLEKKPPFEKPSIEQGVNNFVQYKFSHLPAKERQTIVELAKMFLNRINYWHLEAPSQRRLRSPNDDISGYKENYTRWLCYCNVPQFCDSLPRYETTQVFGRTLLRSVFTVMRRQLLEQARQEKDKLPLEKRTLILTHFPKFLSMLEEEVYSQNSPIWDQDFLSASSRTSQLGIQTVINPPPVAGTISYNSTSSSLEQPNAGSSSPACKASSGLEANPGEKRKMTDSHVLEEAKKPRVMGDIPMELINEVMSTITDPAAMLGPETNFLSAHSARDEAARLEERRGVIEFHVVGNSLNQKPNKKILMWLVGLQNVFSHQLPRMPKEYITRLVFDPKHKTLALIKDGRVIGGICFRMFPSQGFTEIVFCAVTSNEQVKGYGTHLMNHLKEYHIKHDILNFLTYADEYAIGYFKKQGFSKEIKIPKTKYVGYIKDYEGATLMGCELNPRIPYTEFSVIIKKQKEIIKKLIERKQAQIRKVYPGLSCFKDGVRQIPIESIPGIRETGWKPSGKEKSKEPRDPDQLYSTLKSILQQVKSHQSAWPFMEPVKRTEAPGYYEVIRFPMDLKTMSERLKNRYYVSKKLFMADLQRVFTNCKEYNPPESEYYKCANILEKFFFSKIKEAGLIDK

Biological target: Flag-c-MYC (UniProt P01106)
Assay: affinity purification with mass spectrometry; MIA PaCa-2 cells transfected with pCDNA3-2×Flag (empty vector) or pCDNA3-2×Flag-c-MYC; immunoprecipitation with anti-Flag resin; purified complex analysed by mass spectrometry

binding: binds
Substance: PCAF (p300/CBP-associated Factor) (from UniProt Q92831 1-832)
